Reference: PubChem BioAssay AID1159599 (NIAID, 2016)
Assay: 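Mouse macrophage genes that control Tnf-alpha promoter output upon LPS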. System: mouse RAW264.7 G9 macrophage reporter clone cells. Reagent: single siRNA against mouse genes. Time to read-out: 48 to 72 h after siRNA transfection, LPS for the last 16 h. Conditions: LPS (Salmonella minnesota R595), 16 h before fixation; dose not stated. Detection: 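High-content imaging of red fluorescence driven by the Tnf promoter after LPS, background subtracted, scored per siRNA as a plate-wise median/MAD robust z-score, replicate mean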. Scale: Tnf reporter z-score: higher = stronger Tnf promoter reporter signal after LPS. Hit rule: 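Called active if the mean z-score over replicates passes 1.5 in either direction, up or down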. Calls: active = strong change either way; inactive = little change.
The whole screen tested 756 reagents; below is a part drawn at random. 130 of them (17%) count as active. 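Calls are two-sided: actives include siRNAs that raised the Tnf reporter as well as ones that lowered it.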 The numbers tell different reagents against one gene apart. The record does not give: the amount of reagent.

Tnf reporter z-score, replicate mean | Outcome | gene knocked down | siRNA no.
-1.16 | inactive | Elk1 (GeneID 13712) | 1
0.02 | inactive | Elk1 (GeneID 13712) | 2
0.00714 | inactive | Elk1 (GeneID 13712) | 3
-2.12 | active | Elk1 (GeneID 13712) | 4
-1.68 | active | Elk1 (GeneID 13712) | 5
-0.553 | inactive | Elk1 (GeneID 13712) | 6
-0.999 | inactive | Mapk13 (GeneID 26415) | 1
-1.38 | inactive | Mapk13 (GeneID 26415) | 2
-0.708 | inactive | Mapk13 (GeneID 26415) | 3
-1.28 | inactive | Mapk13 (GeneID 26415) | 4
-0.549 | inactive | Mapk13 (GeneID 26415) | 5
-1.88 | active | Mapk13 (GeneID 26415) | 6
-0.816 | inactive | Egr2 (GeneID 13654) | 1
-2.15 | active | Egr2 (GeneID 13654) | 2
-1.82 | active | Egr2 (GeneID 13654) | 3
-3.36 | active | Egr2 (GeneID 13654) | 4
-2.51 | active | Egr2 (GeneID 13654) | 5
-0.0976 | inactive | Egr2 (GeneID 13654) | 6
0.832 | inactive | Crebbp (GeneID 12914) | 1
-1.49 | inactive | Crebbp (GeneID 12914) | 2
-1.59 | active | Crebbp (GeneID 12914) | 3
0.284 | inactive | Crebbp (GeneID 12914) | 4
-1.57 | active | Crebbp (GeneID 12914) | 5
-0.727 | inactive | Crebbp (GeneID 12914) | 6
0.0665 | inactive | Otud5 (GeneID 54644) | 1
0.151 | inactive | Otud5 (GeneID 54644) | 2
-0.564 | inactive | Otud5 (GeneID 54644) | 3
-1.34 | inactive | Otud5 (GeneID 54644) | 4
-1.34 | inactive | Otud5 (GeneID 54644) | 5
-2.39 | active | Otud5 (GeneID 54644) | 6
-0.806 | inactive | Irf5 (GeneID 27056) | 1
-0.219 | inactive | Irf5 (GeneID 27056) | 2
0.045 | inactive | Irf5 (GeneID 27056) | 3
-1.24 | inactive | Irf5 (GeneID 27056) | 4
-0.502 | inactive | Irf5 (GeneID 27056) | 5
-0.128 | inactive | Irf5 (GeneID 27056) | 6
1.26 | inactive | Dusp1 (GeneID 19252) | 1
0.104 | inactive | Dusp1 (GeneID 19252) | 2
-0.572 | inactive | Dusp1 (GeneID 19252) | 3
0.18 | inactive | Dusp1 (GeneID 19252) | 4
0.262 | inactive | Dusp1 (GeneID 19252) | 5
-0.928 | inactive | Dusp1 (GeneID 19252) | 6
-0.432 | inactive | Ube2v1 (GeneID 66589) | 1
-0.0181 | inactive | Ube2v1 (GeneID 66589) | 2
0.139 | inactive | Ube2v1 (GeneID 66589) | 3
-0.494 | inactive | Ube2v1 (GeneID 66589) | 4
2.33 | active | Ube2v1 (GeneID 66589) | 5
-1.98 | active | Ube2v1 (GeneID 66589) | 6

In a second layout: results already given.
"Tnf reporter z-score, replicate mean",Outcome,gene knocked down,siRNA no.
-0.502,inactive,Irf5 (GeneID 27056),5
-0.128,inactive,Irf5 (GeneID 27056),6
1.26,inactive,Dusp1 (GeneID 19252),1
0.104,inactive,Dusp1 (GeneID 19252),2
-0.572,inactive,Dusp1 (GeneID 19252),3
0.18,inactive,Dusp1 (GeneID 19252),4
